Literature values, collected in patent US12295943B2 (Closed Loop Medicine Ltd., priority 2023, dated 2025).

SMILES: COc1ccc(-n2nc(C(N)=O)c3c2C(=O)N(c2ccc(N4CCCCC4=O)cc2)CC3)cc1 [Apixaban]
- daily average levels giving best balance between reduction in stroke and minimization of bleeding (daily average): ~125 ng/mL
- trough levels giving best balance between reduction in stroke and minimization of bleeding (trough): 50 to 75 ng/mL
